PubChem BioAssay AID1487 (National Center for Advancing Translational Sciences (NCATS), 2009)
Where “and” joins values, the source holds several entries; their conditions need not be identical. Equal values may be shown once. Out of some 200,000 compounds screened, about 25 (0.01%) were called active. Inconclusive means that the source gave no clear call. Such entries were picked first, then a sample of the others. Calls come from the whole dose curve; as a rule, active = well fitted inhibition curve with a large enough effect in the signal ratio, with a control signal flat (not every such curve was filed as active); inconclusive = small, poorly fitted or top-dose-only effect, or effect the other way, or a change in a side signal; inactive = flat fitted curve, though single readings scatter; the % refers to the signal ratio. Potencies of inconclusive entries are doubtful fits and often do not repeat.

Assay: qHTS Assay for Modulators of Lamin A Splicing
Details: HeLa LMNA splicing GFP/RFP minigene ratio, 48 h; ratio change, negative = inhibition: at 46.1 µM (top of the series) unless noted
How it was run: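 S3 HeLa cells stably expressing lamin A-EGFP splicing minigene plus DsRed2, 600 cells/well, 48 h compound exposure at 37C. Laser-scanning cytometry; analysed as GFP (500-530 nm)/RFP (575-640 nm) total intensity ratio; 0.5% DMSO vehicle.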
% is set by controls: 0 for no effect and ±100 for the full control effect; potency is the fitted concentration of half-maximal effect.

Compound	ratio change, negative = inhibition	Potency
Cc1ccc(C)c(NC2=CC(=O)CC(C)(C)C2)c1C#N	inconclusive: 18.3%	–
O=C(O)c1ccccc1Nc1cccc(OCc2ccc3ccccc3n2)c1	inconclusive: 13.5%	–
COC1(OC)N=C(N)C2(C#N)C(c3ccccc3)NC(C)=CC12C#N (centres undefined)	inconclusive: -0.955%	–
CCOC(=O)c1csc(NC(=O)c2ccc(OCC)cc2)n1	inconclusive: -18.8% [at 46 µM]	–
COc1cccc(C(=O)Nc2c(C(N)=O)oc3ccccc23)c1	inactive: -13.5%	–
N#Cc1cccc(NC(=O)C2CCN(S(=O)(=O)c3ccc4c(c3)CCCN4C(=O)C3CCC3)CC2)c1	inconclusive: 17.7% [at 46 µM]	–
CCC1=NN=C(c2ccc(F)cc2)C(c2c[nH]c3ccccc23)N1O (centres undefined)	inconclusive: -23.9%	–
Cc1ccc2nc(N(CCCN(C)C)C(=O)c3cc4ccccc4oc3=O)sc2c1	inconclusive: 16.9%	–
COc1ccc(C(=O)Cn2c(=O)n3nc(CCn4nc(C)cc4C)nc3c3cc(OC)c(OC)cc32)cc1	inactive: -6.16% [at 46 µM]	–
Cn1c(=O)n(Cc2ccccc2Br)c2ccccc21	inconclusive: 34.7% [at 46 µM]	–
CCOC(=O)c1c(N)sc2c(OCC)c(Br)ccc12	inactive: -9.46%	–
CC(=O)c1cc(Cc2csc(C(C)=O)c2)cs1	inconclusive: 28.7%	–
Cc1csc(Nc2ccccc2)n1	inactive: -2.54% [at 46 µM]	–
CCn1nnc(NC(=O)c2ccc(-c3ccccc3[N+](=O)[O-])o2)n1	inconclusive: -4.52% [at 46 µM]	–
CCCCN1C(=O)C(NC(C)=O)c2cc(Br)ccc21 (centres undefined)	inactive: 2.44%	–
Nc1c(S(=O)(=O)c2ccccc2)cnc2c(-c3ccc(F)cc3)cnn12	inconclusive: 33.8%	–
CN(C)/C=N/c1cnc(C(=O)c2ccc(Cl)cc2)n1C	inactive: 2.65%	–
CC(C)(C)NC[C@@H](O)COc1ccccc1C1CCCC1	inconclusive: -7.4%	–
CCc1cccc(Nc2c3c(nc4ncnn24)CCC3)c1	inconclusive: 29.6% [at 46 µM]	–
CC(C)CNS(=O)(=O)c1ccc(CCC(=O)N2CCN(c3ccc(F)cc3)CC2)cc1	inconclusive: -14.5% [at 46 µM]	–
CSc1nc(C)cc(OCC(=O)N/N=C/c2ccccc2O)n1	–	inconclusive: 7.08 µM [falling, partial curve]

Compound	ratio change, negative = inhibition	Potency
CCOC(=O)C(NC(C)=O)(Nc1ccc(S(=O)(=O)Nc2cc(C)nc(C)n2)cc1)C(F)(F)F (centres undefined)	inactive: 6.5%	–
COc1cc(/C=C(\NC(C)=O)C(=O)Nc2ccccc2C)ccc1OC(C)=O	inactive: -4.31%	–
NC(=O)[C@@H]1CCCN1C(=O)[C@H](Cc1cnc[nH]1)NC(=O)[C@@H]1CCC(=O)N1	inconclusive: 50.2%	–
COc1ccc(OCc2ccc(-c3nc(C#N)c(N4CCC(C(N)=O)CC4)o3)o2)cc1	inactive: 14% [at 46 µM]	–
CCOc1cc(N2CCOCC2)c(OCC)cc1NS(=O)(=O)c1ccc(Cl)s1	inconclusive: -21.7%	–
CCOc1ccccc1-n1c(SCC(N)=O)nc2ccccc2c1=O	inactive: -0.365%	–
CCCCCCCC/C=C\CCCCCCCC(=O)O	inconclusive: 24.5%	–
CCOc1ccc(/C=C/C(=O)c2cc(Br)ccc(=O)c2O)cc1	inconclusive: -44.7%	–
COc1ccc2c(c1)cc(C(O)c1ccccn1)n2S(=O)(=O)c1ccccc1 (centres undefined)	inconclusive: 10.2%	–
CC(C)(C)c1ccc(NC(=O)COC(=O)c2ccc(NS(=O)(=O)c3ccc(F)c(F)c3)cc2)cc1	–	inconclusive: 35.5 µM [falling, single point]
CC(OCC(O)CN(C)Cc1nc2ccccc2c(=O)[nH]1)c1ccc(Cl)cc1 (centres undefined)	inconclusive: -29.9% [at 46 µM]	–
FCCCOc1ccc(CN2CCN(c3ccccc3F)CC2)cc1	inactive: -6.26% [at 46 µM]	–
CNC(=S)N/N=C(\C)c1ccc(C)c(C)c1	inconclusive: -15.4%	–
CCc1ccc(Nc2ncnc3sc4c(c23)CCCC4)cc1	inconclusive: -31.5% [at 46 µM]	–
CCc1ccc(OCC(=O)Nc2ccc(N3CCN(S(C)(=O)=O)CC3)cc2)cc1	inconclusive: 13.5% [at 46 µM]	–
O=C(N/N=C/c1ccc(OCc2ccccc2)cc1)c1cccs1	inactive: 4.12%	–
Cc1nc(-c2ccc(S(=O)(=O)N(C)Cc3ccccc3)cc2)co1	inconclusive: -15.8% [at 46 µM]	–
Cc1ccc(NC(=O)CCC(=O)OCC(=O)c2ccc(Oc3ccc([N+](=O)[O-])cc3)cc2)cc1	inactive: -9.91%	–
O=C(NCCc1ccccc1)C1CCC(CNc2nc(=S)[nH]c3ccccc23)CC1 (centres undefined)	inconclusive: 35.2% [at 46 µM]	–
CCn1c(C)nc2cc(C(=O)NNC(=S)Nc3ccc(OC)cc3)ccc21	inconclusive: 11.9% [at 46 µM]	–
COc1ccc(CCNC(=O)C2CCN(Cc3nc(-c4ccccc4C)oc3C)CC2)cc1OC	inconclusive: -34.3%	–

Compound	ratio change, negative = inhibition	Potency
CCCNC(=O)COC(=O)/C=C/c1ccc2c(c1)OCO2	inconclusive: 20.3%	–
O=C(Cc1cn2ccsc2n1)OCc1ccccc1	inconclusive: -32.3%	–
CCOC(=O)c1ccc(NC(=S)N2CCSC2c2ccc(OC)cc2)cc1 (centres undefined)	inconclusive: -20.4%	–
c1ccc(C[n+]2cccc(-c3ccccc3)c2)cc1	–	inconclusive: 14.1 µM [fluorescent, single point]
Cc1ncsc1CCOC(=O)c1ccc(N2CCOCC2)c([N+](=O)[O-])c1	inconclusive: -4.09% [at 46 µM]	–
Cc1cccc(CN2CCN(C(=O)CCl)CC2)c1	inconclusive: 38.5%	–
COc1cccc(NC(=O)Cn2c(=O)ccc3cc(S(=O)(=O)N4CCC(C)CC4)ccc32)c1	inconclusive: -16.9% [at 46 µM]	–
CCCCc1nn2c(=O)cc(COC(=O)c3ccco3)nc2s1	inconclusive: 19.2% [at 46 µM]	–
COC(=O)c1c(-c2cc(C)ccc2C)csc1NC(=O)C1CC=CCC1C(=O)O (centres undefined)	inconclusive: 4.81% [at 46 µM]	–
CCCc1nc(S(=O)(=O)Cc2ccc(Cl)cc2Cl)n[nH]1	inactive: -8.69%	–
Cc1ccc(OCC(=O)N/N=C/c2ccc3c(c2)OCO3)cc1C	–	inconclusive: 4.47 µM [activator, partial curve, poor fit]
CCCCC(=O)Nc1nnc(SCc2cc(=O)n3cc(C)ccc3n2)s1	inconclusive: 19.1% [at 46 µM]	–
CC(=O)Oc1ccc(/C=N/NS(=O)(=O)c2ccccc2)cc1	–	inconclusive: 0.199 µM [inhibitor, full curve, poor fit]
Cc1nc2c(C)cccc2cc1C(=O)N/N=C/c1ccc(N(C)C)cc1	inconclusive: -35%	–
CCC(C)Sc1nc2c(c(=O)[nH]1)C(c1cccs1)C1=C(CCCC1=O)N2 (centres undefined)	inconclusive: 95.1% [at 9.22 µM]	–
Cc1ccc(-n2[nH]c(C)c(CCC#N)c2=O)cc1	inconclusive: 4.87%	–
CC(C)(C)NCC(O)c1ccc(O)c(CO)c1 (centres undefined)	inconclusive: 11.3% and inconclusive: -13.8%	–
Nc1ccc(C(=O)n2c3ccccc3c3ccccc32)cc1	–	inconclusive: 1.26 µM [inhibitor, full curve, poor fit]
COc1cccc(NC(=O)CN(C)CC(=O)Nc2ccc(C)cc2Cl)c1	inactive: -17.1% [at 46 µM]	–
CCCNc1nc2c(c(=O)n(C)c(=O)n2C)n1CCC(C)C	inconclusive: -30.1%	–
CC(=O)N1CCC(C(=O)Nc2ccccc2)(N(Cc2ccccc2)C(=O)c2cccnc2)CC1	inconclusive: -1.72%	–

6 neighbouring entries out of the list so far, quoted:
Compound	ratio change, negative = inhibition	Potency
Cc1ccc(OCC(=O)N/N=C/c2ccc3c(c2)OCO3)cc1C	–	inconclusive: 4.47 µM [activator, partial curve, poor fit]
CCCCC(=O)Nc1nnc(SCc2cc(=O)n3cc(C)ccc3n2)s1	inconclusive: 19.1% [at 46 µM]	–
CC(=O)Oc1ccc(/C=N/NS(=O)(=O)c2ccccc2)cc1	–	inconclusive: 0.199 µM [inhibitor, full curve, poor fit]
Cc1nc2c(C)cccc2cc1C(=O)N/N=C/c1ccc(N(C)C)cc1	inconclusive: -35%	–
CCC(C)Sc1nc2c(c(=O)[nH]1)C(c1cccs1)C1=C(CCCC1=O)N2 (centres undefined)	inconclusive: 95.1% [at 9.22 µM]	–
Cc1ccc(-n2[nH]c(C)c(CCC#N)c2=O)cc1	inconclusive: 4.87%	–

Next entries.

Compound	ratio change, negative = inhibition	Potency
COc1cc(CNc2nnnn2C)ccc1OCc1c(F)cccc1Cl	inconclusive: 5.67% [at 46 µM]	–
CCC1CN(S(=O)(=O)c2ccc3c(c2)NC(=O)CC(=O)N3)c2cc(Cl)ccc2O1 (centres undefined)	inconclusive: 0.513% [at 46 µM]	–
O=C(O)c1ccc(C=C(c2nc3ccccc3s2)c2nc3ccccc3s2)cc1	inactive: -25.1% [at 46 µM]	–
CC(C)c1ccc(CN2CC(C(=O)O)CC2=O)cc1 (centres undefined)	inactive: 14.9%	–
CN(Cc1c(F)cccc1Cl)C(=O)c1cc2ccccc2o1	inconclusive: -18.4% [at 46 µM]	–
COc1ccccc1Cc1nc2ccccc2nc1SCC(=O)Nc1ccccc1C(F)(F)F	inconclusive: -2.15% [at 46 µM]	–
COCCn1nnnc1C(c1cccs1)N1CCN(c2ccccc2)CC1 (centres undefined)	inconclusive: 5.58%	–
CCNC(=S)N1CCN(S(=O)(=O)c2ccccc2C(F)(F)F)CC1	inconclusive: -8.53% [at 46 µM]	–
Cn1ncc([N+](=O)[O-])c1C(=O)Nc1nc2ccccc2n1CCN1CCCCC1	inactive: 15.7%	–
COc1ccc(C2Cc3ccccc3C(=O)O2)cc1 (centres undefined)	inconclusive: 3.6%	–
COc1ccc2c(c1)nc(NCCO)n2C	inconclusive: -12.8%	–
Cc1c(Cl)cccc1-n1c(SCC(=O)NCc2cccs2)nnc1-c1ccncc1	inconclusive: 4.16%	–
O=C(NC1CCCCC1)C(c1cccnc1)N(C(=O)CCl)c1ccccc1Cl (centres undefined)	–	inconclusive: 11.2 µM [falling, partial curve]
CCOc1ccc(-n2cc(-c3ccccc3)c3c(N4CCC(C)CC4)ncnc32)cc1	inactive: -15.6% [at 46 µM]	–
O=S(=O)(Nc1ccc(Cc2ccncc2)cc1)N1CCCC1	inactive: -8.78%	–
C=CCc1cccc(CNc2nc3ccccc3n2CC)c1O	inconclusive: 1.73%	–
CN[C@@H]1[C@H](O[C@@H]2O[C@H](CO)[C@@H](N)[C@H](O)[C@@H]2O)O[C@H]2C[C@@H](N)[C@@H](O[C@H]3[C@@H](O)[C@H](O)[C@H](N)C[C@@H]3N)O[C@H]2[C@H]1O	inactive: -12.7%	–
C=CCSC1=C(C#N)C2(CCCCC2)C(C#N)C(=O)N1 (centres undefined)	inactive: 11.6%	–
ClCc1cc2ccccc2nc1Cl	inconclusive: 5.75% [at 46 µM]	–
O=C(CCSCc1cccc(F)c1)NCc1ccccc1	inactive: 30.8% [at 46 µM]	–
COc1cccc(NC(=S)NCCN2CCOCC2)c1	inactive: -6.64%	–
